Data source: PubChem BioAssay AID1259308 (NCATS, 2017)
Shown is one part, drawn at random, of about 59,000 reagents tested. In the full data, about 1,510 (2.6%) were called active. 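Calls use total luciferase alone and ignore viability, so some active siRNAs may act by altering cell number.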 Further read-outs or replicates are left out here.

- Test: 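Knock-downs that increase output of a recombinant reporter protein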 (primary screen)
- Cell system: human HEK293 embryonic kidney cells stably expressing firefly luciferase (HEK-CMV-Luc2-Hygro)
- Reagent: single siRNA against human genes, 0.8 pmol siRNA per well
- Time to read-out: 72 h
- Measured: 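Luciferase light (ONE-Glo) measured on one replicate plate set and viability (CellTiter-Glo) on the other, scaled to a negative control siRNA, with robust z-scores and luciferase per cell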
- Reading the numbers: total luciferase, z-score: higher = more reporter protein produced
- Active means: 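An siRNA counts as active if its total luciferase robust z-score exceeds 3; genes with two or more such siRNAs out of three were retested with fresh siRNAs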
- Meaning of the calls: active = raised luciferase; inactive = no rise

gene,PubChem SID,"total luciferase, z-score",activity call
ARF4,SID160719568,-0.118,inactive
ARF4,SID160719579,1.15,inactive
ARF4,SID160719590,0.946,inactive
SOX15,SID160717217,0.0682,inactive
SOX15,SID160717218,2.91,inactive
SOX15,SID160731778,0.606,inactive
PLA2G2D,SID160730928,-0.843,inactive
PLA2G2D,SID160737904,1.41,inactive
PLA2G2D,SID160737905,-0.764,inactive
DDC,SID160753135,-0.684,inactive
DDC,SID160753146,2.08,inactive
DDC,SID160753155,-0.524,inactive
DPM3,SID160724433,-0.117,inactive
DPM3,SID160724434,-0.15,inactive
DPM3,SID160727921,0.169,inactive
PIWIL2,SID160742998,-1.67,inactive
PIWIL2,SID160742999,-1.2,inactive
PIWIL2,SID160743000,-0.516,inactive
CD164,SID160720756,-0.246,inactive
CD164,SID160735150,-0.252,inactive
CD164,SID160735151,0.371,inactive
MAB21L1,SID160776835,-0.54,inactive
MAB21L1,SID160776836,0.557,inactive
MAB21L1,SID160776837,-1.56,inactive

Quoted from the listing for reference:
gene,PubChem SID,"total luciferase, z-score",activity call
ARF4,SID160719590,0.946,inactive
SOX15,SID160717217,0.0682,inactive
SOX15,SID160717218,2.91,inactive
